This experiment has as its target CXCR4 (Homo sapiens, UniProt P61073). As to the kind of experiment: hit of DualSystems LRC-TriCEPS capture and SelectScreen reporter assay, confirmed in PathHunter beta-arrestin GPCR panel.

Chains of the proteins cited; added tags and fusions are not shown.
UniProt P61073: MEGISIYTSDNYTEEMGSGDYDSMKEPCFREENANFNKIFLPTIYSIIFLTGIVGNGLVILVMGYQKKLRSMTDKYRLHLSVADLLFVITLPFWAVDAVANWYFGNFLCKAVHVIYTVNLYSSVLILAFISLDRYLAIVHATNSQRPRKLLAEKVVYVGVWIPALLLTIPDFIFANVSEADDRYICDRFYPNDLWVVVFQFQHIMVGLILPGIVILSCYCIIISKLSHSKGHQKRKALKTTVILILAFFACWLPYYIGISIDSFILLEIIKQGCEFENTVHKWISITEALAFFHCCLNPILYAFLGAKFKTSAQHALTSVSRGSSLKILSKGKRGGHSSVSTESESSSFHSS

Results are given in words; binding and its absence hold for the method and conditions named. Some binding calls cover weakened binding; strength is not graded here.

For MKVRPSVKPMCEKCKIIRRKGRVMVICENPKHKQRQG (also called PEP802) [SG-3-00802], the binding result is given as “binds”.
